{"source": "PubChem BioAssay AID686937 (Drosophila RNAi Screening Center, 2013)", "screen": "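Knock-downs that reduce output of a secreted reporter enzyme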 (primary screen)", "cells": "Drosophila S2 cells expressing secreted horseradish peroxidase", "knock-down reagent": "long dsRNA against Drosophila genes", "duration": "about 5.5 days (5 days dsRNA, then 12 h reporter induction)", "conditions": "reporter expression induced after 5 days of dsRNA, read 12 h later; inducer not stated", "measured": "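Chemiluminescent measurement of peroxidase in the medium 12 h after reporter induction, following 5 days of dsRNA, given as a z-score per plate; higher means more secretion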", "reading the numbers": "z-score: higher = more reporter secreted into medium", "note": "The deposit covers about 23,000 reagents; this is an unselected part of those that have a named target and a result. 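Reduced-secretion tags in replicate 1 do not always agree with the z-scores; no criterion for assigning the tags was given.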 The numbers tell different reagents against one gene apart. Further read-outs or replicates are left out here. Not stated in the record: the amount of reagent."}
{"predicted target": "CG31637", "reagent no.": 1, "z-score, replicate 1": 0.22}
{"predicted target": "CG31637", "reagent no.": 2, "z-score, replicate 1": 0.39}
{"predicted target": "Pi3K92E", "reagent no.": 1, "z-score, replicate 1": 0.32}
{"predicted target": "Cyp28d2", "reagent no.": 1, "z-score, replicate 1": 0.46}
{"predicted target": "CG3306", "reagent no.": 1, "z-score, replicate 1": 0.27}
{"predicted target": "Snp", "reagent no.": 1, "z-score, replicate 1": 0.08}
{"predicted target": "Snp", "reagent no.": 2, "z-score, replicate 1": 0.14}
{"predicted target": "CG15247", "reagent no.": 1, "z-score, replicate 1": 0.25}
{"predicted target": "CR31292", "reagent no.": 1, "z-score, replicate 1": 0.48}
{"predicted target": "Nlg2", "reagent no.": 1, "z-score, replicate 1": -0.81}
{"predicted target": "Nlg2", "reagent no.": 2, "z-score, replicate 1": 0.46}
{"predicted target": "Pdf", "reagent no.": 1, "z-score, replicate 1": -2.47}
{"predicted target": "Flacc", "reagent no.": 1, "z-score, replicate 1": -0.15}
{"predicted target": "Mtpalpha", "reagent no.": 1, "z-score, replicate 1": 0.05}
{"predicted target": "CG4972", "reagent no.": 1, "z-score, replicate 1": 0.24}
{"predicted target": "CG34160", "reagent no.": 1, "z-score, replicate 1": -0.25}
{"predicted target": "MsR1", "reagent no.": 1, "z-score, replicate 1": 0.18}
{"predicted target": "Dyrk3", "reagent no.": 1, "z-score, replicate 1": 0.77}

Reformatted: results already given
| predicted target | reagent no. | z-score, replicate 1 |
| --- | --- | --- |
| Flacc | 1 | -0.15 |
| Mtpalpha | 1 | 0.05 |
| CG4972 | 1 | 0.24 |
| CG34160 | 1 | -0.25 |

The list goes on.
{"predicted target": "CG16762", "reagent no.": 1, "z-score, replicate 1": 0.15}
{"predicted target": "mia", "reagent no.": 1, "z-score, replicate 1": 0.23}
{"predicted target": "Proc", "reagent no.": 1, "z-score, replicate 1": -3.97}
{"predicted target": "lncRNA:CR43451", "reagent no.": 1, "z-score, replicate 1": 0.27}
{"predicted target": "CG17329", "reagent no.": 1, "z-score, replicate 1": -0.03}
{"predicted target": "PolH", "reagent no.": 1, "z-score, replicate 1": 0.26}
{"predicted target": "ppk10", "reagent no.": 1, "z-score, replicate 1": 0.83}
{"predicted target": "CG31342", "reagent no.": 1, "z-score, replicate 1": 0.42}
{"predicted target": "CG31342", "reagent no.": 2, "z-score, replicate 1": 0.3}
{"predicted target": "CG42819", "reagent no.": 1, "z-score, replicate 1": 0.53}
{"predicted target": "Lk", "reagent no.": 1, "z-score, replicate 1": 0.46}
{"predicted target": "mTerf3", "reagent no.": 1, "z-score, replicate 1": 0.24}
{"predicted target": "Smyd3", "reagent no.": 1, "z-score, replicate 1": -3.35}
{"predicted target": "CG11170", "reagent no.": 1, "z-score, replicate 1": 0.14}
{"predicted target": "DppIII", "reagent no.": 1, "z-score, replicate 1": 0.57}
{"predicted target": "CG13901", "reagent no.": 1, "z-score, replicate 1": 0.32}
{"predicted target": "UQCR-14L", "reagent no.": 1, "z-score, replicate 1": 0.48}
{"predicted target": "UQCR-14L", "reagent no.": 2, "z-score, replicate 1": -0.46}
{"predicted target": "ck", "reagent no.": 1, "z-score, replicate 1": 0.31}
{"predicted target": "Cyp6a19", "reagent no.": 1, "z-score, replicate 1": 0.23}
{"predicted target": "CG13589", "reagent no.": 1, "z-score, replicate 1": 0.25}
{"predicted target": "CG8613", "reagent no.": 1, "z-score, replicate 1": 0.45}
